Test results as given in US5112519A, “Process for production of biodegradable surfactants and compositions thereof” (Mobil Oil Corporation, priority 1989, dated 1992).

Legend:
[1] = system: inoculum from Mobil Technical Center and Paulsboro refinery waste treatment plants; assay: Microbiological conversion of tridecanols to carbon dioxide
[2] = Soil redeposition index, phosphorous built industrial liquid laundry detergent, carbon black/oil; details: 130° F.
[3] = Soil redeposition index, phosphorous built industrial liquid laundry detergent, sebum/dust; details: 130° F.
[4] = Soil redeposition index, unbuilt household liquid laundry detergent, carbon black/oil; details: 100° F.

Molecule | cumulative % biodegraded to carbon dioxide ([1]; 2 days incubated) [%] | cumulative % biodegraded to carbon dioxide ([1]; 7 days incubated) [%] | cumulative % biodegraded to carbon dioxide ([1]; 14 days incubated) [%] | cumulative % biodegraded to carbon dioxide ([1]; 21 days incubated) [%] | cumulative % biodegraded to carbon dioxide ([1]; 28 days incubated) [%] | cumulative % biodegraded to carbon dioxide ([1]; 28 days incubated, listed as Napththalene) [%] | Soil Redeposition Index ([2]; Cotton) | Soil Redeposition Index ([2]; Polyester) | Soil Redeposition Index ([2]; Polyester/Cotton) | Soil Redeposition Index ([3]; Cotton) | Soil Redeposition Index ([3]; Polyester) | Soil Redeposition Index ([3]; Polyester/Cotton) | Soil Redeposition Index ([4]; Cotton) | Soil Redeposition Index ([4]; Polyester) | Soil Redeposition Index ([4]; Polyester/Cotton)
c1ccc2ccccc2c1 [NAPHTHALENE] | 16.8 | 46.5 | 58.0 | 61.9 | 64.7 | 65 |  |  |  |  |  |  |  |  | 
dodecylbenzenesulfonic acid sodium salt [Vista LABS] |  |  |  |  |  |  | 97 | 96 | 99 | 98 | 96 | 98 | 99 | 99 | 99
